## Library screen at single concentrations

Results are given as percent effect.
The record does not define 0% and 100%; most values in the screen are far below 50% and negative numbers occur (in some assays of this library far below -100).
The compounds are a random part of those screened.

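Whole-parasite assay of Trypanosoma brucei over 72 hours; the read-out is not stated. Compounds at 30 µM. The record gives no direction; compounds that gave an IC50 in retests scored well above the rest, so higher reads as stronger inhibition. Values scatter widely below zero; nearly all retest evidence comes from the higher of the two concentrations used. About 64,000 compounds were tested under these conditions; 1.5% (about 940) showed 50% or more at least once.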

SMILES,percent effect
Cc1cc(C)n(C2CCCN(C(=O)c3ccc(N(C)C)nc3)C2)n1 (centres undefined),-15.51%
CN1CCN(Cc2cccnc2)C2(CCN(Cc3ccccn3)C2)C1=O.O=C(O)C(F)(F)F.O=C(O)C(F)(F)F.O=C(O)C(F)(F)F (centres undefined),-28.47%
CCn1c(C2CCCN(Cc3nccn3CCOC)C2)nn(C)c1=O (centres undefined),9.311%
Cn1nc(CN2CCCC2)c2c1CN(c1cnccn1)CC2.O=C(O)C(F)(F)F.O=C(O)C(F)(F)F,-42.51%
CC(=O)N1CCOC(CCc2cc(-c3c(C)noc3C)ncn2)C1 (centres undefined),-3.772%
Cc1ncsc1C(=O)NCCSCc1cccs1,13.55%
O=C1CCCN1CCC1CCN(C2CCCNC2)CC1 (centres undefined),-18.63%
Cc1nn2cc(CCNC(=O)c3cc(C(C)C)no3)nc2s1,-20.09%
Cl.Cl.c1cnc(NCc2cncc3c2CCN(Cc2ccoc2)C3)nc1,-15.25%
CCOCC1CN(C(=O)c2ccoc2C)Cc2cnn(C)c21 (centres undefined),-9.79%
Cc1nc(NC(=O)c2c(-n3cnnn3)sc(C)c2C)sc1C,-45.39%
COc1c(NC(=O)C(C)CCOc2ccccc2)c(C)nn1C (centres undefined),-17.37%
O=S(=O)(C/C=C/c1ccccc1)Cc1nc(C2CC2)no1,-19.7%
CN(CC1CCCCC1)C(=O)c1ccc(-n2ncc(C#N)c2N)cc1,6.505%
O=C(Nc1cccnc1-n1cc(Cl)cn1)C1CCCCC1,-33.97%
CC(C)NC(=O)N1CCN(C(=O)N(C)C)CC2(CC(=O)N(C)C2)C1 (centres undefined),-1.334%
CN(Cc1ccsc1)Cc1nc(-c2ccncc2)no1,3.288%
c1cc2c(cc1CN1CCCC3(CCOC3)C1)OCO2 (centres undefined),-17.07%
[H][C@]12CC[C@]([H])(CN(C(=O)Cc3c(C)nc(CC)[nH]c3=O)C1)N(CCC)C2,7.143%
Cn1cnnc1C1CCN(C(=O)CCCOc2ccccc2)CC1,-9.593%
Cc1nn(C)c(Oc2cccc(F)c2)c1NC(=O)C1CCOCC1,5.165%
Cc1ccc(CNCCCNS(C)(=O)=O)c(Br)c1,-47.72%
CCOCC(=O)Nc1cccnc1-n1ccnc1C,-12.2%
CCOC(=O)N1CC(=O)N(Cc2ccc(OC)cc2)CC(O)C1 (centres undefined),-12.16%
Cc1nc(C)n(CCC(=O)N2CCc3ncc(Cl)cc3C2)n1,8.6%
Cn1cc(CN2CCCC23CCN(C(=O)c2ccccc2)CC3)cn1.O=C(O)C(F)(F)F,12.99%
CNc1ncc(CN(C)C(=O)c2ccccc2C2CCNC2)cn1 (centres undefined),-37.29%
Cc1cc(C)n(CC2CCCN2C(=O)c2cccnc2N(C)C)n1 (centres undefined),15.27%
Cc1ccc(F)cc1NS(=O)(=O)c1cc2c(c(C(=O)O)c1)OCCO2,-13.96%
O=C(O)C(F)(F)F.O=C(O)C(F)(F)F.O=C(c1ccc[nH]1)N1CCc2c(COCc3ccncc3)cncc2C1,-19.5%
COCCN(CC1CC1)c1nc(CCN)nc2ccccc12,27.63%
COc1c(C2CCCN2Cc2nnc(C3CC3)n2C)c(C)nn1C (centres undefined),-47.84%
COc1ccc(C(=O)N2C[C@@H](C(=O)O)[C@H](c3cccc(F)c3)C2)c(O)c1,-59.08%
CCCc1nnc(NC(C)c2ccc3c(c2)OCCO3)o1 (centres undefined),-26.89%
CN1CCCN(S(=O)(=O)c2cnn(C)c2)c2cc(Cl)ccc21,-2.147%
Cn1nccc1-c1ccc2nc(C3CCN(CC4CC4)CC3)nn2c1.O=C(O)C(F)(F)F.O=C(O)C(F)(F)F,-6.036%
Cc1ncc(CC(=O)N2CCC3(CCC(=O)N(C4CC4)C3)CC2)c(=O)[nH]1,-19.81%
CS(=O)(=O)Cc1ccc(C(=O)NC2CCc3nccn3C2)o1 (centres undefined),0.5482%
CCc1csc(C2CCCN(C(=O)c3cc(C4CC4)[nH]n3)C2)n1 (centres undefined),-8.92%
COc1ncccc1NC(=O)NCC1CC1,14.51%
Cc1cc(C)n(Cc2cc(C(=O)N[C@H]3CCCCNC3=O)n[nH]2)n1,-17.46%
Cc1nc(CCNC(=O)NC(C)c2ccc3c(c2)OCCO3)cs1 (centres undefined),-12.27%
O=C(c1nn[nH]c1Nc1cccc(Cl)c1)N1CCSCC1,-84.95%
CC(C)(C)OC(=O)N1CCC[C@H](NCC2=CCCOC2)C1,-37.55%
CN1CCCC(c2cccc(CCC(=O)NCc3ccccn3)n2)C1 (centres undefined),-8.356%
Cc1cnn(CC2CCCCN2Cc2nnc(C3CC3)n2C)c1 (centres undefined),-4.679%
Cc1ccc(S(=O)(=O)n2ccn(C(=O)COc3ccccc3)c2=O)cc1,-48.72%
Cc1ccsc1C(=O)N1CCC2(CC(N(C)c3ccncn3)C2)C1 (centres undefined),-9.037%
CCOc1cccc(NC(=O)Cc2cccc(O)c2)n1,-38.67%
Cc1cccc2c1ccn2CC(=O)O,-58.9%
Cc1ccc2c(c1)C(NC(=O)N(C)C)CC21CCN(C(C)C)CC1.O=C(O)C(F)(F)F (centres undefined),-8.347%
O=c1[nH]nc2c(S(=O)(=O)N3CCOCC3)cccn12,-7.542%
O=C(O)c1cc2c(nc1O)CC(c1cccs1)CC2=O (centres undefined),-41.98%
CC(=O)NCCCn1ncc2c(C)cccc21,-2.921%
Cc1cccc(C(=O)N2C[C@@H](C)[C@@]3(CCN(c4ccsc4)C3=O)C2)n1.O=C(O)C(F)(F)F,-72.74%
COc1ccc(Cc2noc(-c3ccc(NC(C)CO)nc3)n2)cc1 (centres undefined),-26.87%
Cc1ccccc1-n1ncc(C(C)N)c1C (centres undefined),-16.93%
Cc1ccc(-c2nnc(CN3CCOC(Cn4cccn4)C3)o2)cc1 (centres undefined),-19.49%
COCc1cc(O)nc(C2CCCN(Cc3ccc(OC)cc3)C2)n1 (centres undefined),-15.89%
COC(=O)CSc1nnc(CCNC(=O)OC(C)(C)C)o1,-26.76%
O=C(O)C(F)(F)F.[H][C@@]12CN(CC)C[C@]1(C(=O)N(C)C)CCC21CCN(C(C)=O)CC1,-8.855%
COCc1nc(C(=O)NS(=O)(=O)c2ccc(F)c(F)c2)cs1,-39.28%
CNC(=O)c1cn(C)c(-c2nc3cc(NC(C)=O)ccc3n2C)c1OC,-33.59%
Cc1ccc2c(c1)CN(C(=O)c1ccccc1F)C(CN(C)C)CO2.Cl (centres undefined),-7.957%
COC1CCN(C(=O)C2CC(=O)N(c3ccccc3Br)C2)CC1 (centres undefined),-1.429%
COc1ccc(Cl)cc1C(=O)N1C[C@@H](NC(=O)N(C)C)[C@H](C(C)C)C1,-16.23%
CCn1nc(C)c(S(=O)(=O)Nc2cccc(C(=O)O)c2C)c1C,-63.68%
O=S(=O)(Nc1cnn(C2CCOCC2)c1)c1ccc(F)c(F)c1,51.53%
CNS(=O)(=O)c1ccc(CN2CCCN(c3ccccc3)CC2)cc1,-57.73%
Cc1nc(CN2CCCC(N(C)Cc3cnc(C)s3)C2)no1 (centres undefined),-7.805%
CC(C)c1cc(C(=O)N2CCCC3(CCNC3)C2)no1 (centres undefined),-43.95%
CCSCCn1c(=O)n(Cc2ccc(F)cc2)c2ncc(C(=O)O)cc21,-23.4%
COCC1CN(Cc2ccncc2)Cc2nn(CC3CC3)cc21.O=C(O)C(F)(F)F.O=C(O)C(F)(F)F (centres undefined),-22.63%
CCC(CC)C(O)CNC(=O)Nc1cccc(-c2nccn2C)c1 (centres undefined),-14.41%
C(=C\c1ccc(CN2CCCC2)cn1)/c1ccccc1,9.523%

9 of the entries, repeated:

{"smiles": "Cc1ccc(-c2nnc(CN3CCOC(Cn4cccn4)C3)o2)cc1", "stereo": "centres undefined", "percent effect": -19.49}
{"smiles": "CCOCC(=O)Nc1cccnc1-n1ccnc1C", "percent effect": -12.2}
{"smiles": "O=S(=O)(C/C=C/c1ccccc1)Cc1nc(C2CC2)no1", "percent effect": -19.7}
{"smiles": "Cc1nc(C)n(CCC(=O)N2CCc3ncc(Cl)cc3C2)n1", "percent effect": 8.6}
{"smiles": "Cc1ccc2c(c1)CN(C(=O)c1ccccc1F)C(CN(C)C)CO2.Cl", "stereo": "centres undefined", "percent effect": -7.957}
{"smiles": "O=C(O)C(F)(F)F.O=C(O)C(F)(F)F.O=C(c1ccc[nH]1)N1CCc2c(COCc3ccncc3)cncc2C1", "percent effect": -19.5}
{"smiles": "CN1CCCN(S(=O)(=O)c2cnn(C)c2)c2cc(Cl)ccc21", "percent effect": -2.147}
{"smiles": "CS(=O)(=O)Cc1ccc(C(=O)NC2CCc3nccn3C2)o1", "stereo": "centres undefined", "percent effect": 0.5482}
{"smiles": "Cc1nc(NC(=O)c2c(-n3cnnn3)sc(C)c2C)sc1C", "percent effect": -45.39}

Measurements from “University of Dundee, Small-Polar-MMV Screening Library” (2021), ChEMBL document CHEMBL3988442.